One molecule from article PMC4561349 can be followed below.

These are yes or no findings as the source states them, for the method shown. Binding seen in cells or lysates may run through a third protein. Some results given as binding are weak or reduced against the parent protein; the word gives no strength.

The target of the assay is T1, AKINβ2, subunit of the Arabidopsis SnRK kinase (Arabidopsis) (UniProt Q9SCY5).
T1 sequence: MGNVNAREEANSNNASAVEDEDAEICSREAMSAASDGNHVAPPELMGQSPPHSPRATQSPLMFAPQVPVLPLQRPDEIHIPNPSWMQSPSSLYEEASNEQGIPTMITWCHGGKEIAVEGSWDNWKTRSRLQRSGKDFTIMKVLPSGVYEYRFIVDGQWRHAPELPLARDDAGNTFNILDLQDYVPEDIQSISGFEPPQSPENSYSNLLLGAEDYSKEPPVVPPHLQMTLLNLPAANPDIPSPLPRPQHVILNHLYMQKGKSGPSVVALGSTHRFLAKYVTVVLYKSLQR
Briefly: split reporter; BiFC with pYFN43 and pYFC43 fusions co-infiltrated (Agrobacterium GV3101/pMP90, with p19) into N. benthamiana leaves; confocal microscopy 3 days post-infiltration, nuclei stained with DAPI.

B1: AKIN10, subunit of the Arabidopsis SnRK kinase (enzyme, UniProt Q38997 1-512)
chain: MDGSGTGSRSGVESILPNYKLGRTLGIGSFGRVKIAEHALTGHKVAIKILNRRKIKNMEMEEKVRREIKILRLFMHPHIIRLYEVIETPTDIYLVMEYVNSGELFDYIVEKGRLQEDEARNFFQQIISGVEYCHRNMVVHRDLKPENLLLDSKCNVKIADFGLSNIMRDGHFLKTSCGSPNYAAPEVISGKLYAGPEVDVWSCGVILYALLCGTLPFDDENIPNLFKKIKGGIYTLPSHLSPGARDLIPRMLVVDPMKRVTIPEIRQHPWFQAHLPRYLAVPPPDTVQQAKKIDEEILQEVINMGFDRNHLIESLRNRTQNDGTVTYYLILDNRFRASSGYLGAEFQETMEGTPRMHPAESVASPVSHRLPGLMEYQGVGLRSQYPVERKWALGLQSRAHPREIMTEVLKALQDLNVCWKKIGHYNMKCRWVPNSSADGMLSNSMHDNNYFGDESSIIENEAAVKSPNVVKFEIQLYKTRDDKYLLDLQRVQGPQFLFLDLCAAFLAQLRVL
For B1, the binding result was “binds”.
